From the supplement of paper PMC10331698
± gives the standard deviation of the averaged measurements. Most values lie at the level of the controls, where differences are scatter.

Key:
Assay in all cases: level (log10 ratio to DMSO vehicle control); higher = higher biomarker level / cell amount than vehicle control
[1] = compound: C=C(C)C(=O)OCC(F)(F)C(F)(F)C(F)(F)F [2,2,3,3,4,4,4-Heptafluorobutyl methacrylate]; settings: 2200 nM; in DMSO
Protocol: (§1)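 BioMAP Diversity Plus panel of 12 human primary cell co-culture systems (3C, 4H, LPS, SAg, BT, BF4T, BE3C, CASM3C, HDF3CGF, KF3CT, MyoF, Mphg). Compounds were added 1 h before stimulation and left for 24 h (MyoF 48 h; BT 72 h for soluble read-outs or 6 d for IgG). Biomarkers were read by ELISA, cytotoxicity by SRB, PBMC viability and proliferation by Alamar Blue. Each well value was divided by the mean of 8 DMSO control wells on the same plate and log10 transformed; duplicate blinded samples were tested at 4 concentrations.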

[2] = compound: C=CC(=O)OCC(F)(F)C(F)(F)C(F)(F)C(F)(F)COC(=O)C=C [1H,1H,6H,6H-Perfluorohexane-1,6-diol diacrylate]; settings: 2200 nM; in DMSO
Protocol: as §1

[3] = compound: FC(F)(F)C(F)(F)C(F)(F)C(F)(F)C(F)(F)C(F)(F)C(F)(F)CCI [1-Iodo-1H,1H,2H,2H-perfluorononane]; settings: in DMSO
Protocol: as §1

[4] = compound: FC(F)(F)C(F)(F)C(F)(F)C(F)(F)C(F)(F)C(F)(F)C(F)(F)I [1-Iodopentadecafluoroheptane]; settings: in DMSO
Protocol: as §1

[5] = compound: FC(F)C(F)(F)COCC1CO1 [((2,2,3,3-Tetrafluoropropoxy)methyl)oxirane]; settings: 2200 nM; in DMSO
Protocol: as §1

Perfluorooctanamide = compound: NC(=O)C(F)(F)C(F)(F)C(F)(F)C(F)(F)C(F)(F)C(F)(F)C(F)(F)F [Perfluorooctanamide]; settings: 2200 nM; in DMSO
Protocol: as §1

Perfluoroundecanoic acid = compound: O=C(O)C(F)(F)C(F)(F)C(F)(F)C(F)(F)C(F)(F)C(F)(F)C(F)(F)C(F)(F)C(F)(F)C(F)(F)F [Perfluoroundecanoic acid]; settings: in DMSO
Protocol: as §1

[6] = compound: O=C(O)C(F)(F)C(F)(F)C(F)(F)C(F)(F)C(F)(F)C(F)(F)C(F)(F)C(F)F [9-H-Perfluorononanoic acid]; settings: 2200 nM; in DMSO
Protocol: as §1

Perfluorobutanoic acid = compound: O=C(O)C(F)(F)C(F)(F)C(F)(F)F [Perfluorobutanoic acid]; settings: 2200 nM; in DMSO
Protocol: as §1

Perfluoropropanoic acid = compound: O=C(O)C(F)(F)C(F)(F)F [Perfluoropropanoic acid]; settings: 2200 nM; in DMSO
Protocol: as §1

[7] = compound: O=C(O)C(F)(F)C(F)(F)OC(F)(F)F [Perfluoro-3-methoxypropanoic acid]; settings: 2200 nM; in DMSO
Protocol: as §1

[8] = compound: O=C(O)C(F)(F)OC(F)(F)C(F)(F)OC(F)(F)C(=O)O [Perfluoro-3,6-dioxaoctane-1,8-dioic acid]; settings: 2200 nM; in DMSO
Protocol: as §1

[9] = compound: O=C(O)C(F)(F)OC(F)(F)C(F)(F)OC(F)(F)C(F)(F)C(F)(F)C(F)(F)F [Perfluoro-3,6-dioxadecanoic acid]; settings: 2200 nM; in DMSO
Protocol: as §1

[10] = compound: O=C(O)C=CC(F)(C(F)(F)F)C(F)(F)F [3-(Perfluoroisopropyl)-2-propenoic acid]; settings: in DMSO
Protocol: as §1

[11] = compound: O=P(O)(O)CCC(F)(F)C(F)(F)C(F)(F)C(F)(F)C(F)(F)C(F)(F)C(F)(F)C(F)(F)F [((Perfluorooctyl)ethyl)phosphonic acid]; settings: 2200 nM; in DMSO
Protocol: as §1

[12] = compound: O=S(=O)(Cl)C(F)(F)C(F)(F)C(F)(F)C(F)(F)C(F)(F)C(F)(F)C(F)(F)C(F)(F)F [Perfluoro-1-octanesulfonyl chloride]; settings: 2200 nM; in DMSO
Protocol: as §1

[13] = compound: OCC(F)(F)C(F)(F)C(F)(F)C(F)(F)C(F)(F)C(F)(F)C(F)(F)C(F)(F)C(F)(F)C(F)(F)C(F)(F)F [11:1 Fluorotelomer alcohol]; settings: in DMSO
Protocol: as §1

[14] = compound: OCCC(F)(F)C(F)(F)C(F)(F)C(F)(F)C(F)(F)C(F)(F)C(F)(F)C(F)(F)F [8:2 Fluorotelomer alcohol]; settings: 2200 nM; in DMSO
Protocol: as §1

Row | Test System | level (log10) [1] | level (log10) [2] | level (log10) ([3]; 740 nM) | level (log10) ([3]; 2200 nM) | level (log10) ([3]; 6700 nM) | level (log10) ([3]; 20000 nM) | level (log10) ([4]; 740 nM) | level (log10) ([4]; 2200 nM) | level (log10) ([4]; 6700 nM) | level (log10) ([4]; 20000 nM) | level (log10) [5] | level (log10) (Perfluorooctanamide) | level (log10) (Perfluoroundecanoic acid; 740 nM) | level (log10) (Perfluoroundecanoic acid; 2200 nM) | level (log10) [6] | level (log10) (Perfluorobutanoic acid) | level (log10) (Perfluoropropanoic acid) | level (log10) [7] | level (log10) [8] | level (log10) [9] | level (log10) ([10]; 2200 nM) | level (log10) ([10]; 6700 nM) | level (log10) ([10]; 20000 nM) | level (log10) ([10]; 60000 nM) | level (log10) [11] | level (log10) [12] | level (log10) ([13]; 370 nM) | level (log10) ([13]; 1100 nM) | level (log10) ([13]; 3300 nM) | level (log10) ([13]; 10000 nM) | level (log10) [14]
1 | lMphg:CXCL8/IL-8 | 0.0435 ± 0.037 | -0.0085 ± 0.021 | 0.0145 ± 0.0021 | 0 ± 0.03 | 0.007 ± 0.013 | 0.0695 ± 0.0078 | -0.013 ± 0.0099 | 0.021 ± 0.021 | -0.018 ± 0.0071 | 0.0165 ± 0.019 | 0.0395 ± 0.0092 | 0.014 ± 0.0099 | 0.021 ± 0.021 | 0.0225 ± 0.026 | 0.0355 ± 0.028 | 0.017 ± 0.069 | 0.022 ± 0.0028 | 0.004 ± 0.027 | 0.001 ± 0.011 | 0.0255 ± 0.0092 | 0.0005 ± 0.04 | -0.0225 ± 0.0021 | -0.006 ± 0.0028 | 0.0415 ± 0.054 | 0.0025 ± 0.043 | 0.003 ± 0.028 | 0.042 ± 0.0085 | 0.111 ± 0.042 | 0.127 ± 0.033 | 0.0445 ± 0.0064 | 0.0425 ± 0.056
2 | lMphg:CD69 | 0.0445 ± 0.0035 | 0.008 ± 0.0014 | -0.026 ± 0.03 | -0.0195 ± 0.039 | -0.0025 ± 0.023 | -0.053 ± 0.076 | -0.029 | -0.0625 ± 0.05 | -0.0455 ± 0.043 | -0.079 ± 0.062 | 0.0285 ± 0.026 | 0.0195 ± 0.022 | -0.0295 ± 0.086 | -0.043 ± 0.041 | -0.086 ± 0.083 | 0.048 ± 0.0085 | 0.0065 ± 0.036 | 0.0035 ± 0.021 | 0.0125 ± 0.018 | -0.009 ± 0.061 | 0.0055 ± 0.028 | -0.0265 ± 0.022 | -0.021 ± 0.035 | 0.0235 ± 0.049 | 0.014 ± 0.04 | -0.0415 ± 0.084 | -0.0155 ± 0.047 | -0.038 ± 0.017 | -0.103 ± 0.028 | -0.0685 ± 0.0078 | -0.026 ± 0.1
3 | HDF3CGF:PAI-I | -0.0035 ± 0.067 | 0.0375 ± 0.05 | 0.0155 ± 0.0035 | 0.0095 ± 0.026 | 0.0075 ± 0.023 | -0.0095 ± 0.032 | -0.0115 ± 0.021 | -0.0245 ± 0.00071 | -0.044 ± 0.0071 | -0.064 ± 0.023 | 0.003 ± 0.0042 | -0.0045 ± 0.016 | -0.0045 ± 0.022 | 0.0145 ± 0.013 | 0.01 ± 0.023 | 0.0165 ± 0.00071 | -0.0515 ± 0.069 | 0.0115 ± 0.037 | 0.0105 ± 0.043 | 0.02 ± 0.021 | -0.0125 ± 0.0064 | -0.0085 ± 0.018 | -0.0215 ± 0.015 | -0.0005 ± 0.032 | -0.0175 ± 0.0078 | 0.0085 ± 0.013 | 0.024 ± 0.0085 | 0.037 ± 0.0014 | 0.0515 ± 0.012 | 0.029 ± 0.075 | -0.01 ± 0.042
4 | HDF3CGF:CXCL11/I-TAC | -0.0245 ± 0.0035 | -0.166 ± 0.036 | -0.0045 ± 0.021 | -0.015 | -0.0295 ± 0.005 | -0.094 ± 0.018 | 0.001 ± 0.013 | -0.022 ± 0.0057 | -0.019 ± 0.0057 | -0.0405 ± 0.0092 | -0.0135 ± 0.042 | 0.0075 ± 0.026 | -0.01 ± 0.034 | -0.033 ± 0.0028 | -0.0325 ± 0.025 | 0.0105 ± 0.021 | -0.014 ± 0.057 | 0.002 ± 0.034 | 0.003 ± 0.0028 | -0.042 ± 0.054 | 0.0025 ± 0.036 | -0.004 ± 0.0014 | 0.015 ± 0.025 | 0.002 ± 0.021 | 0.11 ± 0.013 | -0.022 | -0.0345 ± 0.0064 | -0.0245 ± 0.03 | -0.0655 ± 0.005 | -0.0155 ± 0.04 | -0.005 ± 0.05
5 | HDF3CGF:MMP-1 | -0.0275 ± 0.028 | 0.0285 ± 0.00071 | -0.0125 ± 0.019 | -0.006 | 0.011 ± 0.017 | 0.061 ± 0.04 | 0.006 | -0.008 | -0.0105 ± 0.0021 | -0.0285 ± 0.018 | 0.0205 ± 0.00071 | -0.0135 ± 0.011 | -0.0165 ± 0.018 | -0.0055 ± 0.011 | -0.015 ± 0.041 | 0.0145 ± 0.021 | -0.0035 ± 0.039 | 0.005 ± 0.0014 | 0.0045 ± 0.00071 | -0.0025 ± 0.0021 | 0.0045 ± 0.0035 | 0.0005 ± 0.012 | 0.008 ± 0.011 | 0.0005 ± 0.0064 | -0.003 ± 0.016 | -0.028 ± 0.025 | -0.0295 ± 0.012 | -0.011 ± 0.0057 | -0.042 ± 0.0014 | -0.0255 ± 0.035 | -0.0015 ± 0.00071
6 | BT:sIL-17A | -0.064 ± 0.073 | -0.184 ± 0.16 | 0.053 ± 0.085 | 0.047 ± 0.082 | 0.0035 ± 0.1 | -0.0305 ± 0.15 | 0.019 ± 0.05 | -0.0405 ± 0.16 | -0.213 ± 0.3 | -0.112 ± 0.31 | 0.0065 ± 0.13 | -0.0895 ± 0.044 | 0.043 ± 0.045 | 0.0175 ± 0.015 | -0.0615 ± 0.05 | -0.235 ± 0.03 | -0.045 ± 0.13 | 0.021 ± 0.0071 | -0.115 ± 0.076 | -0.0265 ± 0.057 | -0.053 ± 0.2 | -0.01 ± 0.047 | 0.024 ± 0.14 | -0.124 ± 0.13 | 0.119 ± 0.1 | -0.177 ± 0.084 | 0.161 ± 0.23 | 0.329 ± 0.16 | 0.401 ± 0.032 | 0.325 ± 0.06 | 0.0665 ± 0.09
7 | lMphg:CD106/VCAM-1 | 0.0075 ± 0.0021 | -0.01 ± 0.031 | -0.038 ± 0.0071 | -0.0125 ± 0.0064 | -0.009 ± 0.04 | -0.039 ± 0.075 | 0.005 ± 0.0014 | -0.0095 ± 0.0035 | -0.0025 ± 0.0064 | -0.007 ± 0.017 | -0.0175 ± 0.012 | -0.0115 ± 0.0078 | 0.019 ± 0.0085 | 0.0015 ± 0.0064 | -0.0325 ± 0.044 | 0.001 ± 0.035 | 0.0005 ± 0.00071 | 0.007 ± 0.0099 | 0.008 ± 0.02 | -0.011 ± 0.0014 | -0.015 ± 0.0085 | 0.001 ± 0.024 | 0.0125 ± 0.005 | 0.002 ± 0.034 | -0.008 ± 0.016 | -0.002 ± 0.02 | 0.0085 ± 0.016 | 0.0045 ± 0.005 | -0.001 ± 0.0014 | -0.0015 ± 0.0035 | -0.0035 ± 0.0021
